Test results from the supplement of paper PMC12823440, “Inhibitors supercharge kinase turnover through native proteolytic circuits” (Nature, 2025).
The list shows a part of the results. Hit calls seldom repeat between salt and free forms of one compound.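 In K562 cells expressing nanoluciferase-fused kinases, luminescence was recorded at 4 h intervals between 2 and 18 h, normalized as percent of control with DMSO at 100% and a positive control at 0%. A significant (2 sigma) signal drop marks a time point as decreased. The authors' rule for a hit is not shown and takes in more than the number of time points.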

By UniProt entry, the sequences of proteins in these tests, tags left out. Where a name states a change or a piece, a line headed by the entry shows the natural chain unless it says otherwise.
UniProt Q00526: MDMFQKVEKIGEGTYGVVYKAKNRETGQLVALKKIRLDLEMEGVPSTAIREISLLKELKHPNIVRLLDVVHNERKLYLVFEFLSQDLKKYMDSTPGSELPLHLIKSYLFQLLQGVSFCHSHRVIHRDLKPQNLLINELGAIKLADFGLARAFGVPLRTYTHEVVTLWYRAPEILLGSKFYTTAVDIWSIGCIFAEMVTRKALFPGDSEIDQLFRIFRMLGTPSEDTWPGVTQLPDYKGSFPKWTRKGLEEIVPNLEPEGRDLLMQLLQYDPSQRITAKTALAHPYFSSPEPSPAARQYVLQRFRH
UniProt P11362, whole entry, looked up: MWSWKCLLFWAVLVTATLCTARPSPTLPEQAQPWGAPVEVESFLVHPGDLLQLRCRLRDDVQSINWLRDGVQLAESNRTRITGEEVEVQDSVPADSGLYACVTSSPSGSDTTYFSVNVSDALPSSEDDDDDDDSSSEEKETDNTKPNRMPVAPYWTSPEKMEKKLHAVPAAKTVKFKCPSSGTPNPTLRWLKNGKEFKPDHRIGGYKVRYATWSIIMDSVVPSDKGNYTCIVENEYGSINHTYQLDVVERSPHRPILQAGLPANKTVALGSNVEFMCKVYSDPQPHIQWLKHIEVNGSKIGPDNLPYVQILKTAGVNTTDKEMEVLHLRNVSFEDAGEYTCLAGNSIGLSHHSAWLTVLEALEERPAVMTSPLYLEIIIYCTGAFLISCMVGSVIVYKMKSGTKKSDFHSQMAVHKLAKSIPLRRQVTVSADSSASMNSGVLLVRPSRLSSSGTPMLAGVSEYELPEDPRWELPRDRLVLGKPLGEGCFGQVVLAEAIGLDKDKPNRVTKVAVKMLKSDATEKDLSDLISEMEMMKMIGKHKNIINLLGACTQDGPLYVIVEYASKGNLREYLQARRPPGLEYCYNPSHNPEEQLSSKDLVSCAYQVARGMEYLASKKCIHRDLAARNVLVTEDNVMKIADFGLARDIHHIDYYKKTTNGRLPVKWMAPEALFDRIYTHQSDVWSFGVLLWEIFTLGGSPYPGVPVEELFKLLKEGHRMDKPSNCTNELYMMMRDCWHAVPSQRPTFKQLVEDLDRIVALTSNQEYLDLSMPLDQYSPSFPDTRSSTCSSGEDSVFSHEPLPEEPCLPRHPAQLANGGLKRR
UniProt P14616: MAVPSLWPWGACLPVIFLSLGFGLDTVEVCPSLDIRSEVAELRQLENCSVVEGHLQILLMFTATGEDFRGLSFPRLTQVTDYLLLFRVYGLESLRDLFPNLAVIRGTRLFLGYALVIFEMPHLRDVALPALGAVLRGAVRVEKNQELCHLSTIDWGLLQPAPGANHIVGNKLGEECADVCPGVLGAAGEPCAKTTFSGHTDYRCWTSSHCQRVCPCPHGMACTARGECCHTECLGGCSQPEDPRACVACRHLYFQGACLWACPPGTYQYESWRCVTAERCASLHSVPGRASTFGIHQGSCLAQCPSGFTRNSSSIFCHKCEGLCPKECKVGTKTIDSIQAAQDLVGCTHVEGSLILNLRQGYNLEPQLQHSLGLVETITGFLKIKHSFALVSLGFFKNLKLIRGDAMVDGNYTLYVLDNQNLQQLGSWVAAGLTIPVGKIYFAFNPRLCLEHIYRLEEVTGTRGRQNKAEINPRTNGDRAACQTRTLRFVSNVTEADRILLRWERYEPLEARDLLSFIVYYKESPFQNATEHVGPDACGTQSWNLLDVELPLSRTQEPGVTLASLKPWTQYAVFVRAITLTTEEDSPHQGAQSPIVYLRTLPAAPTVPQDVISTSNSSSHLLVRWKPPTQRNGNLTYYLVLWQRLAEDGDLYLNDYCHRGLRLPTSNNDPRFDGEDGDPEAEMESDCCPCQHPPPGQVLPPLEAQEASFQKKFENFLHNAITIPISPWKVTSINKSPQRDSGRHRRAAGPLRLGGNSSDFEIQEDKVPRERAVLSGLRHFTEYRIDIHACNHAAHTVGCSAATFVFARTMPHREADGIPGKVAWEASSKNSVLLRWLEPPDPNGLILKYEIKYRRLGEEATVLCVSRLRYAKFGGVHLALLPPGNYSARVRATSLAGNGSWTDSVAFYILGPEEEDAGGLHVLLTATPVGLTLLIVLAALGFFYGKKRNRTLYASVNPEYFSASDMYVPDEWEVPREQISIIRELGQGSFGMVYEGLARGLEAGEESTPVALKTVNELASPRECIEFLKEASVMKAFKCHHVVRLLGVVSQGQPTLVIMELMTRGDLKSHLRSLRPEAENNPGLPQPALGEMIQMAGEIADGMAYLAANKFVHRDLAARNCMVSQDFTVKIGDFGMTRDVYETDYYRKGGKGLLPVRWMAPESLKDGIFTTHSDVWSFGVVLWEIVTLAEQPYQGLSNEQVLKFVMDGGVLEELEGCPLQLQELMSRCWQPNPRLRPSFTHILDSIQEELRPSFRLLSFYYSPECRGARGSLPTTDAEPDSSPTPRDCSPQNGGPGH
UniProt P15056, whole entry, looked up: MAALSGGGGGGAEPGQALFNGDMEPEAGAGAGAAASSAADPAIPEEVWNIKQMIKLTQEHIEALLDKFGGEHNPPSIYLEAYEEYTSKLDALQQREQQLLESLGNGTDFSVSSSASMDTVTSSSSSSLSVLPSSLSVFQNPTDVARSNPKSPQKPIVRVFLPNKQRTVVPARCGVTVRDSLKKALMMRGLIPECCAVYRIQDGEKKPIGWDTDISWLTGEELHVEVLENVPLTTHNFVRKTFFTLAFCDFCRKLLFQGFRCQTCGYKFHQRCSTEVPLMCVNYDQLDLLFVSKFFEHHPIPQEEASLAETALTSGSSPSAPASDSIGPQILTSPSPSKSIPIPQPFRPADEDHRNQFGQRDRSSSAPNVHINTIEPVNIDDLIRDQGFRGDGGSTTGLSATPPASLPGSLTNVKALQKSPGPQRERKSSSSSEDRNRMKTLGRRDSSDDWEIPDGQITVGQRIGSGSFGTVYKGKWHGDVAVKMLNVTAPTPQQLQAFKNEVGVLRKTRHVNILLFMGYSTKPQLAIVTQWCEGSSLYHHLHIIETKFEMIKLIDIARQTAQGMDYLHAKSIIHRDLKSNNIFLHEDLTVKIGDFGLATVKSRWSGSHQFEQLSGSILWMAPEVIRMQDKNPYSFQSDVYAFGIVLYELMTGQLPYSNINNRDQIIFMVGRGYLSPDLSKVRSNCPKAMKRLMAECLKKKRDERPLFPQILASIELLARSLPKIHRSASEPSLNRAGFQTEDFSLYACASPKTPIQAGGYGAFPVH
UniProt Q15131: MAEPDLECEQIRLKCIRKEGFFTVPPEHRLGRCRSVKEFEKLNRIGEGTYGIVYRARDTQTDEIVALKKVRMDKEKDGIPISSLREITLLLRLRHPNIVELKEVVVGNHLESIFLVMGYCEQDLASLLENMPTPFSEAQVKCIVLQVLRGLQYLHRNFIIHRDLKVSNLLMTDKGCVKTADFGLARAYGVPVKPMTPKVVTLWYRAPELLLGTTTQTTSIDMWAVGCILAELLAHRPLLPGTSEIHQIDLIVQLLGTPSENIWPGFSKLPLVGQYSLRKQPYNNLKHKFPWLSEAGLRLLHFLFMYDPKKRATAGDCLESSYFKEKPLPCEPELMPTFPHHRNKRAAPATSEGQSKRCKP
UniProt Q13131: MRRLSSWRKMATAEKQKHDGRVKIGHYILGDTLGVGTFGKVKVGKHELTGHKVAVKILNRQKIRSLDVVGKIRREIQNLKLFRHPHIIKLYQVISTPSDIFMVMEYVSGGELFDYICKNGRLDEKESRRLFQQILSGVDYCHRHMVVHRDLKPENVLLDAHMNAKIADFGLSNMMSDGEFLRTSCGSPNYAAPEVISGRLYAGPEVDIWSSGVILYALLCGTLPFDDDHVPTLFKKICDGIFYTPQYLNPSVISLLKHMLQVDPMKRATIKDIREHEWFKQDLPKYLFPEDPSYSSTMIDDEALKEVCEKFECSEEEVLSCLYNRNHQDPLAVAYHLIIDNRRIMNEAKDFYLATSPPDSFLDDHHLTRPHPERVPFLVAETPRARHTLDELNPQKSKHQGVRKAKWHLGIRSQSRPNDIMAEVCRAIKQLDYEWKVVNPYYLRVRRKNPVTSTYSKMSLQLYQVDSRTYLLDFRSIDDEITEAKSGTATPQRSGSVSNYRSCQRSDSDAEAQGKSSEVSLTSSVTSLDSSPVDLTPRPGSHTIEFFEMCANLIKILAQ
UniProt Q8IWU2: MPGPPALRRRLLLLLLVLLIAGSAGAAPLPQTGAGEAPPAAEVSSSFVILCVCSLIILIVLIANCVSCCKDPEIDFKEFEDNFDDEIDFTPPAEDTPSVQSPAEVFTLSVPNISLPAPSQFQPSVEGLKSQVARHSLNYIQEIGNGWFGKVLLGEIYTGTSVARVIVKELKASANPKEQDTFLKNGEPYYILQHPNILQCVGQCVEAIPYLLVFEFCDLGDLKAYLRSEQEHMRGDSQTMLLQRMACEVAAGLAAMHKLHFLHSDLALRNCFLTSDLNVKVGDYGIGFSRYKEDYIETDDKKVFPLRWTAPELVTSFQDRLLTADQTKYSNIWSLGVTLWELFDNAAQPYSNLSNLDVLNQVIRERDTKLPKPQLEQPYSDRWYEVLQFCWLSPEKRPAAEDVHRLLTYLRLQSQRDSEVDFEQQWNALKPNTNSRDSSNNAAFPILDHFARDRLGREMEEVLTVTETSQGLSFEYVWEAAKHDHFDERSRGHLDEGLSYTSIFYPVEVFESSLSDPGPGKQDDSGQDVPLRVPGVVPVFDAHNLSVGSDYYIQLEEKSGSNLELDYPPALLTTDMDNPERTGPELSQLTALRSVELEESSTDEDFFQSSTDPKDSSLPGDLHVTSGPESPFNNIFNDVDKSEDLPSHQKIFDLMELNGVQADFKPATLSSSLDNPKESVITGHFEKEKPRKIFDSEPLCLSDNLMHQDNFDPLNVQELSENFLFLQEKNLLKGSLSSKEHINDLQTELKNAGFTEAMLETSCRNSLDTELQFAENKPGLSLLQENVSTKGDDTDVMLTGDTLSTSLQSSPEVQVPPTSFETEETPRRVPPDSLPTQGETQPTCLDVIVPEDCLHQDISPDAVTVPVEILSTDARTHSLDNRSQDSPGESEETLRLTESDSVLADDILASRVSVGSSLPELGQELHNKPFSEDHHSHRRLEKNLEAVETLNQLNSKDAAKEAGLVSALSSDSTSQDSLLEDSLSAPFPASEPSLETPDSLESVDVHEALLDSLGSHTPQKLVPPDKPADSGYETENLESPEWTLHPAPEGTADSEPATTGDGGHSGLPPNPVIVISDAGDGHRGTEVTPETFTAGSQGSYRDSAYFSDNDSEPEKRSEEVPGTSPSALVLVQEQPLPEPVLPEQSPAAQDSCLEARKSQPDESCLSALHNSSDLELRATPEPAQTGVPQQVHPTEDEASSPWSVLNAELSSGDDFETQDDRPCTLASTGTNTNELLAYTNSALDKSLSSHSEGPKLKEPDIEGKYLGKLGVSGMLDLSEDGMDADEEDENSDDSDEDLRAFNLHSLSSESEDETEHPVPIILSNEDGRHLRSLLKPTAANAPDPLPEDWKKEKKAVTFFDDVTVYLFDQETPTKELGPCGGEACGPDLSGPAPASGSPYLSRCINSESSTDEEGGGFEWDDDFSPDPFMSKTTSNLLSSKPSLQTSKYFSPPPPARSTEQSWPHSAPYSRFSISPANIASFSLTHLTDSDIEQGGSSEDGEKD
UniProt Q9UQB9: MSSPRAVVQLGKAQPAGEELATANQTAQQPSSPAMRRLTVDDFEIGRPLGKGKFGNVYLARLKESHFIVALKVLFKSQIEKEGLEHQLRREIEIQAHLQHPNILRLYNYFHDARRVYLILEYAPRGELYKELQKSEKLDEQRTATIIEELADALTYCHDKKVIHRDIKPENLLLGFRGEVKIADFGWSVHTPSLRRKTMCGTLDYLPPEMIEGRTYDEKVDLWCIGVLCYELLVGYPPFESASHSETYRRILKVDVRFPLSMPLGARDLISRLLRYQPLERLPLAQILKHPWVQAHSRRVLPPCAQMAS
UniProt Q13546: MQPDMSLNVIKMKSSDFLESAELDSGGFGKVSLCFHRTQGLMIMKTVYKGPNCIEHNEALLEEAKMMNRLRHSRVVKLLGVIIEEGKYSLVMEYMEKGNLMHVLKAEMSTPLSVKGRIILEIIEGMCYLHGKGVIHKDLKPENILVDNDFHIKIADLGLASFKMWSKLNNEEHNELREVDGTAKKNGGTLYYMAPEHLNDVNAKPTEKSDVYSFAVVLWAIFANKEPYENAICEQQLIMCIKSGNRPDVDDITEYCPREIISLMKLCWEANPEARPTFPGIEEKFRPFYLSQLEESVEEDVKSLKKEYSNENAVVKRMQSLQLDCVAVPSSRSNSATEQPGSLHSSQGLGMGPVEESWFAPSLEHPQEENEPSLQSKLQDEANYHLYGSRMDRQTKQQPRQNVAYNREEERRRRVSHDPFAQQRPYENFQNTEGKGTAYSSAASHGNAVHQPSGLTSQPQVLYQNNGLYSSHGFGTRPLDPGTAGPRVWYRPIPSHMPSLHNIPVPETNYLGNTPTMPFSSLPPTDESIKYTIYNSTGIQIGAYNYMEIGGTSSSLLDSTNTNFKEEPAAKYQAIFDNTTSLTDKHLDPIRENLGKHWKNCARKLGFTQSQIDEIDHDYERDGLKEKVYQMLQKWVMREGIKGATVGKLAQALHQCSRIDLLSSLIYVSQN

Experiments:
Assay in all cases: number of time points (of 5) at which kinase-Nluc abundance scored as decreased, DMSO-normalised (count); higher = more persistent destabilization
[1] = compound: N#CC(=Cc1cc(Cl)cc(Cl)c1)c1cccnc1; conditions: 10 µM; K562; 2-18 h
[2] = compound: NC1(C(=O)N[C@@H](CCO)c2ccc(Cl)cc2)CCN(c2nc[nH]c3nccc2-3)CC1 [Capivasertib]; conditions: 10 µM; K562; 2-18 h
[3] = compound: NCCNc1ncc(C(N)=O)c(Nc2cccc(C(F)(F)F)c2)n1 [Syk Inhibitor II]; conditions: 10 µM; K562; 2-18 h
[4] = compound: Nc1nc(Nc2ccc(S(N)(=O)=O)cc2)nn1C(=O)c1c(F)cccc1F; conditions: 2.5 µM; K562; 2-18 h
[5] = compound: Nc1ncccc1-c1nc2ccc(-c3ccccc3)nc2n1-c1ccc(C2(N)CCC2)cc1 [Miransertib]; conditions: 10 µM; K562; 2-18 h
[6] = compound: O=C(NCCCNc1nc(Nc2cccc(CN3CCOCC3)c2)ncc1C1CC1)C1CCC1; conditions: 10 µM; K562; 2-18 h
[7] = compound: NC(=O)c1c(OCc2c(F)cc(Br)cc2F)nsc1NC(=O)NCCCCN1CCCC1; conditions: 2.5 µM; K562; 2-18 h
[8] = compound: Nc1ncnc2c1c(-c1cnc3[nH]ccc3c1)nn2C1CCCC1; conditions: 2.5 µM; K562; 2-18 h
[9] = compound: Nc1ncnc2n[nH]c(-c3ccc(Oc4ccccc4)cc3)c12 [Ibrutinib deacryloylpiperidine]; conditions: 10 µM; K562; 2-18 h
[10] = compound: N[C@H]1CCCCNc2nc(ncc2C(=O)NCc2ccc(F)cc2)NCCCCCCNC1=O; conditions: 10 µM; K562; 2-18 h

Measured: number of time points

EGFR_G719S (UniProt P00533)
0: [1] | [2] | [3] | [4] | [6]
2: [5]

ARAF (UniProt P10398)
0: [7] | [2] | [3] | [4] | [5] | [8] | [9] | [6]

FGR (UniProt P09769)
0: [7] | [2] | [3] | [4] | [5] | [8] | [9] | [6]

PDGFRB (UniProt P09619)
2: [4]
0: [1] | [2] | [3] | [5] | [9] | [6]

BTK (UniProt Q06187)
0: [1] | [7] | [2] | [3] | [4] | [5] | [9] | [6]

BRAF_V600E
3: [8]
0: [7] | [2] | [3] | [10] | [4] | [9] | [6]

CDK3 (UniProt Q00526)
0: [7] | [2] | [3] | [4] | [5] | [8] | [9] | [6]

ABL1 (UniProt P00519)
0: [1] | [7] | [2] | [3]
4: [5]

Two neighbouring entries from above, for reference:
CDK3 (UniProt Q00526)
0: [7] | [2] | [3] | [4] | [5] | [8] | [9] | [6]

ABL1 (UniProt P00519)
0: [1] | [7] | [2] | [3]
4: [5]

The listing continues:

STK24 (UniProt Q9Y6E0)
0: [7] | [2] | [3] | [4] | [5] | [8] | [9] | [6]

FGFR1 (UniProt P11362)
1: [5]
0: [1] | [7] | [2] | [3] | [8] | [9] | [6]

AURKB (UniProt Q96GD4)
4: [5]
1: [8]
0: [1] | [7] | [2] | [3] | [9] | [6]

BLK (UniProt P51451)
1: [5] | [8]
0: [1] | [2] | [3] | [4] | [9] | [6]

RET (UniProt P07949)
0: [1] | [2] | [3] | [4] | [5] | [9] | [6]
1: [8]

INSRR (UniProt P14616)
3: [8]
0: [7] | [2] | [3] | [4] | [5] | [9] | [6]

BRAF (UniProt P15056)
0: [1] | [2] | [3] | [4] | [5] | [9] | [6]
2: [8]

CDK10 (UniProt Q15131)
0: [7] | [2] | [3] | [4] | [5] | [8] | [9] | [6]

AURKA (UniProt O14965)
4: [5]
0: [1] | [7] | [2] | [3] | [9] | [6]
3: [8]

PIK4CB (UniProt Q9UBF8)
0: [7] | [2] | [3] | [4] | [9] | [6]
1: [5]
4: [8]

PRKAA1 (UniProt Q13131)
0: [7] | [2] | [3] | [4] | [9]
1: [5]
3: [8]

LMTK2 (UniProt Q8IWU2)
2: [5]
0: [7] | [2] | [3] | [4] | [9] | [6]
1: [8]

ULK3 (UniProt Q6PHR2)
0: [7] | [2] | [3] | [4] | [8] | [9]
2: [5] | [6]

EGFR_L861Q (UniProt P00533)
2: [5]
0: [2] | [3] | [6]
1: [4]

AURKC (UniProt Q9UQB9)
0: [7] | [2] | [4] | [5] | [8] | [9] | [6]

ROR2 (UniProt Q01974)
0: [7] | [2] | [3] | [4] | [5] | [8] | [9] | [6]

RIPK1 (UniProt Q13546)
2: [5]
0: [7] | [2] | [3] | [4] | [9] | [6]
3: [8]
